Among the data in paper doi:10.1101/2025.10.30.684516 are binding values, retold here.

Amino acid sequences for entries named in this document (tags omitted).
UniProt P08670: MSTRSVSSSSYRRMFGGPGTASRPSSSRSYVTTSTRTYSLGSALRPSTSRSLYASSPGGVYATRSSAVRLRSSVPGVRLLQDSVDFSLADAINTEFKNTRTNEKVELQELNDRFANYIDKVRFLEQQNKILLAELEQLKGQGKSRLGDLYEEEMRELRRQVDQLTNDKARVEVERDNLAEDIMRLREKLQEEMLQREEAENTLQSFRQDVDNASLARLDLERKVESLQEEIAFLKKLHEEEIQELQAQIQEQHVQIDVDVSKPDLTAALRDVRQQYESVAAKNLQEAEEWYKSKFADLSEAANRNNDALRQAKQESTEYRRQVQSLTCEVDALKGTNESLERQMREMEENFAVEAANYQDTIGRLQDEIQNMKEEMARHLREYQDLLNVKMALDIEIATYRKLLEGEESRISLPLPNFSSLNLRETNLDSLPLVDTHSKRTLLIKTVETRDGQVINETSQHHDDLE

Results are given in words; binding and its absence hold for the method and conditions named. In cells and extracts the contact can be indirect. Here binding means that the protein was enriched with, or labelled near, the bait; the list need not be complete.

To fix the notation:
B1: HMGB3 (protein, UniProt O15347 1-200)
chain: MAKGDPKKPKGKMSAYAFFVQTCREEHKKKNPEVPVNFAEFSKKCSERWKTMSGKEKSKFDEMAKADKVRYDREMKDYGPAKGGKKKKDPNAPKRPPSGFFLFCSEFRPKIKSTNPGISIGDVAKKLGEMWNNLNDSEKQPYITKAAKLKEKYEKDVADYKSKGKFDGAKGPAKVARKKVEEEDEEEEEEEEEEEEEEDE
B2: PPP6C (protein phosphatase 6 catalytic subunit) (protein, UniProt O00743 1-305)
chain: MAPLDLDKYVEIARLCKYLPENDLKRLCDYVCDLLLEESNVQPVSTPVTVCGDIHGQFYDLCELFRTGGQVPDTNYIFMGDFVDRGYYSLETFTYLLALKAKWPDRITLLRGNHESRQITQVYGFYDECQTKYGNANAWRYCTKVFDMLTVAALIDEQILCVHGGLSPDIKTLDQIRTIERNQEIPHKGAFCDLVWSDPEDVDTWAISPRGAGWLFGAKVTNEFVHINNLKLICRAHQLVHEGYKFMFDEKLVTVWSAPNYCYRCGNIASIMVFKDVNTREPKLFRAVPDSERVIPPRTTTPYFL
B3: TWF2 (protein, UniProt Q6IBS0 1-349)
chain: MAHQTGIHATEELKEFFAKARAGSVRLIKVVIEDEQLVLGASQEPVGRWDQDYDRAVLPLLDAQQPCYLLYRLDSQNAQGFEWLFLAWSPDNSPVRLKMLYAATRATVKKEFGGGHIKDELFGTVKDDLSFAGYQKHLSSCAAPAPLTSAERELQQIRINEVKTEISVESKHQTLQGLAFPLQPEAQRALQQLKQKMVNYIQMKLDLERETIELVHTEPTDVAQLPSRVPRDAARYHFFLYKHTHEGDPLESVVFIYSMPGYKCSIKERMLYSSCKSRLLDSVEQDFHLEIAKKIEIGDGAELTAEFLYDEVHPKQHAFKQAFAKPKGPGGKRGHKRLIRGPGENGDDS
B4: BANF1 (protein, UniProt O75531 1-89)
chain: MTTSQKHRDFVAEPMGEKPVGSLAGIGEVLGKKLEERGFDKAYVVLGQFLVLKKDEDLFREWLKDTCGANAKQSRDCFGCLREWCDAFL
B5: ARMCX3 (protein, UniProt Q9UH62 1-379)
chain: MGYARKVGWVTAGLVIGAGACYCIYRLTRGRKQNKEKMAEGGSGDVDDAGDCSGARYNDWSDDDDDSNESKSIVWYPPWARIGTEAGTRARARARARATRARRAVQKRASPNSDDTVLSPQELQKVLCLVEMSEKPYILEAALIALGNNAAYAFNRDIIRDLGGLPIVAKILNTRDPIVKEKALIVLNNLSVNAENQRRLKVYMNQVCDDTITSRLNSSVQLAGLRLLTNMTVTNEYQHMLANSISDFFRLFSAGNEETKLQVLKLLLNLAENPAMTRELLRAQVPSSLGSLFNKKENKEVILKLLVIFENINDNFKWEENEPTQNQFGEGSLFFFLKEFQVCADKVLGIESHHDFLVKVKVGKFMAKLAEHMFPKSQE
B6: CSRP1 (protein, UniProt P21291 1-193)
chain: MPNWGGGKKCGVCQKTVYFAEEVQCEGNSFHKSCFLCMVCKKNLDSTTVAVHGEEIYCKSCYGKKYGPKGYGYGQGAGTLSTDKGESLGIKHEEAPGHRPTTNPNASKFAQKIGGSERCPRCSQAVYAAEKVIGAGKSWHKACFRCAKCGKGLESTTLADKDGEIYCKGCYAKNFGPKGFGFGQGAGALVHSE
B7: DDX19A (protein, UniProt Q9NUU7 1-478)
chain: MATDSWALAVDEQEAAVKSMTNLQIKEEKVKADTNGIIKTSTTAEKTDEEEKEDRAAQSLLNKLIRSNLVDNTNQVEVLQRDPNSPLYSVKSFEELRLKPQLLQGVYAMGFNRPSKIQENALPMMLAEPPQNLIAQSQSGTGKTAAFVLAMLSRVEPSDRYPQCLCLSPTYELALQTGKVIEQMGKFYPELKLAYAVRGNKLERGQKISEQIVIGTPGTVLDWCSKLKFIDPKKIKVFVLDEADVMIATQGHQDQSIRIQRMLPRNCQMLLFSATFEDSVWKFAQKVVPDPNVIKLKREEETLDTIKQYYVLCSSRDEKFQALCNLYGAITIAQAMIFCHTRKTASWLAAELSKEGHQVALLSGEMMVEQRAAVIERFREGKEKVLVTTNVCARGIDVEQVSVVINFDLPVDKDGNPDNETYLHRIGRTGRFGKRGLAVNMVDSKHSMNILNRIQEHFNKKIERLDTDDLDEIEKIAN
B8: DUSP1 (Dual-specificity phosphatase 1) (protein, UniProt P28562 1-367)
chain: MVMEVGTLDAGGLRALLGERAAQCLLLDCRSFFAFNAGHIAGSVNVRFSTIVRRRAKGAMGLEHIVPNAELRGRLLAGAYHAVVLLDERSAALDGAKRDGTLALAAGALCREARAAQVFFLKGGYEAFSASCPELCSKQSTPMGLSLPLSTSVPDSAESGCSSCSTPLYDQGGPVEILPFLYLGSAYHASRKDMLDALGITALINVSANCPNHFEGHYQYKSIPVEDNHKADISSWFNEAIDFIDSIKNAGGRVFVHCQAGISRSATICLAYLMRTNRVKLDEAFEFVKQRRSIISPNFSFMGQLLQFESQVLAPHCSAEAGSPAMAVLDRGTSTTTVFNFPVSIPVHSTNSALSYLQSPITTSPSC
B9: LASP1 (protein, UniProt Q14847 1-261)
chain: MNPNCARCGKIVYPTEKVNCLDKFWHKACFHCETCKMTLNMKNYKGYEKKPYCNAHYPKQSFTMVADTPENLRLKQQSELQSQVRYKEEFEKNKGKGFSVVADTPELQRIKKTQDQISNIKYHEEFEKSRMGPSGGEGMEPERRDSQDGSSYRRPLEQQQPHHIPTSAPVYQQPQQQPVAQSYGGYKEPAAPVSIQRSAPGGGGKRYRAVYDYSAADEDEVSFQDGDTIVNVQQIDDGWMYGTVERTGDTGMLPANYVEAI
B10: A2M (protein, UniProt P01023 24-1474)
chain: SVSGKPQYMVLVPSLLHTETTEKGCVLLSYLNETVTVSASLESVRGNRSLFTDLEAENDVLHCVAFAVPKSSSNEEVMFLTVQVKGPTQEFKKRTTVMVKNEDSLVFVQTDKSIYKPGQTVKFRVVSMDENFHPLNELIPLVYIQDPKGNRIAQWQSFQLEGGLKQFSFPLSSEPFQGSYKVVVQKKSGGRTEHPFTVEEFVLPKFEVQVTVPKIITILEEEMNVSVCGLYTYGKPVPGHVTVSICRKYSDASDCHGEDSQAFCEKFSGQLNSHGCFYQQVKTKVFQLKRKEYEMKLHTEAQIQEEGTVVELTGRQSSEITRTITKLSFVKVDSHFRQGIPFFGQVRLVDGKGVPIPNKVIFIRGNEANYYSNATTDEHGLVQFSINTTNVMGTSLTVRVNYKDRSPCYGYQWVSEEHEEAHHTAYLVFSPSKSFVHLEPMSHELPCGHTQTVQAHYILNGGTLLGLKKLSFYYLIMAKGGIVRTGTHGLLVKQEDMKGHFSISIPVKSDIAPVARLLIYAVLPTGDVIGDSAKYDVENCLANKVDLSFSPSQSLPASHAHLRVTAAPQSVCALRAVDQSVLLMKPDAELSASSVYNLLPEKDLTGFPGPLNDQDNEDCINRHNVYINGITYTPVSSTNEKDMYSFLEDMGLKAFTNSKIRKPKMCPQLQQYEMHGPEGLRVGFYESDVMGRGHARLVHVEEPHTETVRKYFPETWIWDLVVVNSAGVAEVGVTVPDTITEWKAGAFCLSEDAGLGISSTASLRAFQPFFVELTMPYSVIRGEAFTLKATVLNYLPKCIRVSVQLEASPAFLAVPVEKEQAPHCICANGRQTVSWAVTPKSLGNVNFTVSAEALESQELCGTEVPSVPEHGRKDTVIKPLLVEPEGLEKETTFNSLLCPSGGEVSEELSLKLPPNVVEESARASVSVLGDILGSAMQNTQNLLQMPYGCGEQNMVLFAPNIYVLDYLNETQQLTPEIKSKAIGYLNTGYQRQLNYKHYDGSYSTFGERYGRNQGNTWLTAFVLKTFAQARAYIFIDEAHITQALIWLSQRQKDNGCFRSSGSLLNNAIKGGVEDEVTLSAYITIALLEIPLTVTHPVVRNALFCLESAWKTAQEGDHGSHVYTKALLAYAFALAGNQDKRKEVLKSLNEEAVKKDNSVHWERPQKPKAPVGHFYEPQAPSAEVEMTSYVLLAYLTAQPAPTSEDLTSATNIVKWITKQQNAQGGFSSTQDTVVALHALSKYGAATFTRTGKAAQVTIQSSGTFSSKFQVDNNNRLLLQQVSLPELPGEYSMKVTGEGCVYLQTSLKYNILPEKEEFPFALGVQTLPQTCDEPKAHTSFQISLSVSYTGSRSASNMAIVDVKMVSGFIPLKPTVKMLERSNHVSRTEVSSNHVLIYLDKVSNQTLSLFFTVLQDVPVRDLKPAIVKVYDYYETDEFAIAEYNAPCSKDLGNA
B11: CLTA (protein, UniProt P09496 1-248)
chain: MAELDPFGAPAGAPGGPALGNGVAGAGEEDPAAAFLAQQESEIAGIENDEAFAILDGGAPGPQPHGEPPGGPDAVDGVMNGEYYQESNGPTDSYAAISQVDRLQSEPESIRKWREEQMERLEALDANSRKQEAEWKEKAIKELEEWYARQDEQLQKTKANNRVADEAFYKQPFADVIGYVTNINHPCYSLEQAAEEAFVNDIDESSPGTEWERVARLCDFNPKSSKQAKDVSRMRSVLISLKQAPLVH
B12: PDCD4 (protein, UniProt Q53EL6 1-469)
chain: MDVENEQILNVNPADPDNLSDSLFSGDEENAGTEEIKNEINGNWISASSINEARINAKAKRRLRKNSSRDSGRGDSVSDSGSDALRSGLTVPTSPKGRLLDRRSRSGKGRGLPKKGGAGGKGVWGTPGQVYDVEEVDVKDPNYDDDQENCVYETVVLPLDERAFEKTLTPIIQEYFEHGDTNEVAEMLRDLNLGEMKSGVPVLAVSLALEGKASHREMTSKLLSDLCGTVMSTTDVEKSFDKLLKDLPELALDTPRAPQLVGQFIARAVGDGILCNTYIDSYKGTVDCVQARAALDKATVLLSMSKGGKRKDSVWGSGGGQQSVNHLVKEIDMLLKEYLLSGDISEAEHCLKELEVPHFHHELVYEAIIMVLESTGESTFKMILDLLKSLWKSSTITVDQMKRGYERIYNEIPDINLDVPHSYSVLERFVEECFQAGIISKQLRDLCPSRGRKRFVSEGDGGRLKPESY
B13: RER1 (protein, UniProt O15258 1-196)
chain: MSEGDSVGESVHGKPSVVYRFFTRLGQIYQSWLDKSTPYTAVRWVVTLGLSFVYMIRVYLLQGWYIVTYALGIYHLNLFIAFLSPKVDPSLMEDSDDGPSLPTKQNEEFRPFIRRLPEFKFWHAATKGILVAMVCTFFDAFNVPVFWPILVMYFIMLFCITMKRQIKHMIKYRYIPFTHGKRRYRGKEDAGKAFAS

For the assay, the target named is VIM-APEX2-GFP (UniProt P08670). Kind of assay: proximity labelling.
With B1, the binding entry is reported as “binds”.

B2: the binding entry is “binds”.

On to B3, for which the binding entry is “binds”.

As for B4, the binding result is “binds”.

On to B5, for which the binding result is “binds”.

Regarding B6, the binding entry is listed as “binds”.

Take B7: the binding entry is listed as “binds”.

As for B8, the binding entry is given as “binds”.

For the molecule B9, the binding result is “binds”.

Take B10: the binding entry is reported as “binds”.

With B11, the binding result is given as “binds”.

In the case of B12, the binding entry is reported as “binds”.

For the molecule B13, the binding entry is reported as “binds”.
